Assay results from article PMC5669951.

Tests used:
[1] = target: T1, Flag-MIZ1 (MYC-interacting zinc-finger protein 1, Flag tagged) (UniProt Q13105); assay: co-IP; HEK 293T cells co-transfected with tagged constructs, lysed 48 h after transfection (20 mM Tris-HCl pH 7.4, 2 mM EDTA, 25 mM NaF, 1% Triton X-100); IP with Myc, Flag or HA antibody and protein A/G beads overnight at 4 °C; immunoblotting; in Figure 4E with or without HA-RLIM (1 or 2 μg)
T1 sequence: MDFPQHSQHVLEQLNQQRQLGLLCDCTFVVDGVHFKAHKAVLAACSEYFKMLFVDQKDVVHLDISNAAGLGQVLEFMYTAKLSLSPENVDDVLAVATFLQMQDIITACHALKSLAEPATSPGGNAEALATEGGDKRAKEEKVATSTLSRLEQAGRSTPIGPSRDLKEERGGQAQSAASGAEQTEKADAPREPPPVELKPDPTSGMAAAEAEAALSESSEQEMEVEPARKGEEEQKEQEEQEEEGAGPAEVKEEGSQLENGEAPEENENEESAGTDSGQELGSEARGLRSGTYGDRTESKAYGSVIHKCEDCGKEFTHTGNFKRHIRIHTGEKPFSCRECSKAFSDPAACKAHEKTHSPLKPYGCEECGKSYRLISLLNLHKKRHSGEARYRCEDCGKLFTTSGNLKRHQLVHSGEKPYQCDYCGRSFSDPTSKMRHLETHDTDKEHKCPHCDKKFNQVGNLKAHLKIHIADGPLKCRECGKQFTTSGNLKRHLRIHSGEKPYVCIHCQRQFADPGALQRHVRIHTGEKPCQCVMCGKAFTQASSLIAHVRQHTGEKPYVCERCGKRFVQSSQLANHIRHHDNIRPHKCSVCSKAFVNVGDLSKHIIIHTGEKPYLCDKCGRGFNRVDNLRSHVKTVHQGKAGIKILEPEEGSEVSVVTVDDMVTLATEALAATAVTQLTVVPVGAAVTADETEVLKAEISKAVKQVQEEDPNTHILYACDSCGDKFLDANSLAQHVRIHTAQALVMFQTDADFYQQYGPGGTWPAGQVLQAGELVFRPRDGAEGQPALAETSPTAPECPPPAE

[2] = target: T2, HA-RLIM (RING finger LIM domain-binding protein, HA tagged) (UniProt Q9NVW2); assay: as above
T2 sequence: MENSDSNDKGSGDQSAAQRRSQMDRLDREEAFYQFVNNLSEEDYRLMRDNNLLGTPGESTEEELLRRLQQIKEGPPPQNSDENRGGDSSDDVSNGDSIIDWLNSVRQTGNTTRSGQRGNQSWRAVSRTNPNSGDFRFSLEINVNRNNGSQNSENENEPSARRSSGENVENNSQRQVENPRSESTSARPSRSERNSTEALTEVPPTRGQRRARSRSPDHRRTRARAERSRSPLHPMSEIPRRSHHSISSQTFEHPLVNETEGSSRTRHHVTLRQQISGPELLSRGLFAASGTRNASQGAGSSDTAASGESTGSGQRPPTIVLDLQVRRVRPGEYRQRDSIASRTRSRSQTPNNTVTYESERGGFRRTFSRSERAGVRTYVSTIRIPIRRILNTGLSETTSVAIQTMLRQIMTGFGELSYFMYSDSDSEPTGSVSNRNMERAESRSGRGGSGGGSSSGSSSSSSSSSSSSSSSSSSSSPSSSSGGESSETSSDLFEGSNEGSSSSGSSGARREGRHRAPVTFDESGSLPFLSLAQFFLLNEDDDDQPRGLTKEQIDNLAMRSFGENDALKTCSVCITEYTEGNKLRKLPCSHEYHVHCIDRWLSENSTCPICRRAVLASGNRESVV

binding [1]: binds | binding [2]: binds
Substance: Myc-c-MYC (c-MYC, Myc tagged) (from UniProt P01106-1)

Results are given in words; binding and its absence hold for the method and conditions named. In cells and extracts the contact can be indirect. Binding can be weak; no strength is given. Tags and fused reporters may be left off the sequences shown.
